These are yes or no findings as the source states them, for the method shown. In cells and extracts the contact can be indirect. Some binding calls cover weakened binding; strength is not graded here. For some assays here: Where a sequence is shown, tags or fusion partners need not be part of it. Values belong to the molecule of their own block, whether it stands above or below them.
Legend:
[1] = target: T1, N-myristoyltransferase 1 (NMT1), endogenous (human (endogenous in Bel-7402 and Bel-7404)) (UniProt P30419); assay: co-IP; endogenous NMT1 precipitated with anti-NMT1 antibodies in Bel-7402 and Bel-7404 cells overexpressing WT or mutant NDP/NUP-HA, with or without increasing POTEE plasmid
T1 sequence: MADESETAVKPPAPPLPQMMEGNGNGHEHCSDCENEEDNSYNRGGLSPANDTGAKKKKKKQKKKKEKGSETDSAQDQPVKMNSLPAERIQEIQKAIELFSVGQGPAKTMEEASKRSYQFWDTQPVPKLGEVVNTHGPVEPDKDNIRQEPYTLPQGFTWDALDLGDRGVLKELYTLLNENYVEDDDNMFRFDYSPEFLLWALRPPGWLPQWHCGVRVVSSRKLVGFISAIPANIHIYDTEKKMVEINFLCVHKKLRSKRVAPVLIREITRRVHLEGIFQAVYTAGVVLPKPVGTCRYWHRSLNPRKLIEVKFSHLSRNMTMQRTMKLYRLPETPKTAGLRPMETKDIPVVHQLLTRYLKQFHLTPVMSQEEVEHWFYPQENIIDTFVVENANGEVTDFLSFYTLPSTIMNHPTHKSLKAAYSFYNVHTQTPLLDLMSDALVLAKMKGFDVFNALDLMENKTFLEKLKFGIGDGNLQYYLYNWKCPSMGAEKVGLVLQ

Amino acid sequences for entries named in this document (tags omitted). Residues count along the entry.
UniProt P02787, residues 20-698: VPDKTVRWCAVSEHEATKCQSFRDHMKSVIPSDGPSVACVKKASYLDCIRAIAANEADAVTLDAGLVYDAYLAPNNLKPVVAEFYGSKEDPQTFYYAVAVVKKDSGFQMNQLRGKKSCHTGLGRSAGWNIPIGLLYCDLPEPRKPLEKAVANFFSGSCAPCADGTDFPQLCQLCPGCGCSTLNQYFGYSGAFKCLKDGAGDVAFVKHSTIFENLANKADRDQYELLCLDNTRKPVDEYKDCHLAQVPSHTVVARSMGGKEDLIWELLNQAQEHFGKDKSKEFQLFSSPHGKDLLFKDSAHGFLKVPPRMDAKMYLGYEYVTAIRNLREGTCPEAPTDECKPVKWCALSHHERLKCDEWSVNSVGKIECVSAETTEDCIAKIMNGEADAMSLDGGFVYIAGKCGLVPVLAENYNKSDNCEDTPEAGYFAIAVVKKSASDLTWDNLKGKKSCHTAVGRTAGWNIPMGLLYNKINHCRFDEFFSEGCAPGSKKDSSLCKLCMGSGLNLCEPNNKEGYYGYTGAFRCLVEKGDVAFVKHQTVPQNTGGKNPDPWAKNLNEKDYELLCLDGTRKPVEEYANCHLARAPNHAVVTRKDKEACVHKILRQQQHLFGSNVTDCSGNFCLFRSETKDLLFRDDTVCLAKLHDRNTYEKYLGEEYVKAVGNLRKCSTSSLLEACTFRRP
UniProt P68871: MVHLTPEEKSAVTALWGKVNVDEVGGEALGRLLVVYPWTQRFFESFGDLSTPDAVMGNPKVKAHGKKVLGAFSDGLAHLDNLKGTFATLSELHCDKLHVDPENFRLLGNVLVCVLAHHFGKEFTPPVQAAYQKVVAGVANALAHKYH
UniProt P02768, residues 25-609: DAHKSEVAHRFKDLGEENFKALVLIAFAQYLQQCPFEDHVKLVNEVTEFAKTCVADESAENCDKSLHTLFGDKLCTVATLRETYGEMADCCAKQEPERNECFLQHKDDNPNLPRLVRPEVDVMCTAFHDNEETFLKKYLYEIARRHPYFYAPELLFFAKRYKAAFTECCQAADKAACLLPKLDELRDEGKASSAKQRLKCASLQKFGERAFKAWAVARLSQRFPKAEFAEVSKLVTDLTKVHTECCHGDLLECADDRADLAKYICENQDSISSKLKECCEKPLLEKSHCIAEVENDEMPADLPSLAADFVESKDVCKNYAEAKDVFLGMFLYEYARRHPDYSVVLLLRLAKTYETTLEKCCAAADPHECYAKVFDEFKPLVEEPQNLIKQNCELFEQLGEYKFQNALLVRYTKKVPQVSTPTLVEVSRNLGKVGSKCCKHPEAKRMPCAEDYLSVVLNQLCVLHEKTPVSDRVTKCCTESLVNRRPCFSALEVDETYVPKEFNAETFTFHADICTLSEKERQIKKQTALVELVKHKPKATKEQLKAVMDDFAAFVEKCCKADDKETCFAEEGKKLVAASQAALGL

AHSG-HA = target: T2, AHSG-HA (UniProt P02765); assay: co-IP; NDP/NUP-HA (WT or Mut) precipitated with anti-HA in Bel-7402 cells; RPL7A, HBB and HIST1H4H detected with their antibodies (Figure 7A)
T2 sequence: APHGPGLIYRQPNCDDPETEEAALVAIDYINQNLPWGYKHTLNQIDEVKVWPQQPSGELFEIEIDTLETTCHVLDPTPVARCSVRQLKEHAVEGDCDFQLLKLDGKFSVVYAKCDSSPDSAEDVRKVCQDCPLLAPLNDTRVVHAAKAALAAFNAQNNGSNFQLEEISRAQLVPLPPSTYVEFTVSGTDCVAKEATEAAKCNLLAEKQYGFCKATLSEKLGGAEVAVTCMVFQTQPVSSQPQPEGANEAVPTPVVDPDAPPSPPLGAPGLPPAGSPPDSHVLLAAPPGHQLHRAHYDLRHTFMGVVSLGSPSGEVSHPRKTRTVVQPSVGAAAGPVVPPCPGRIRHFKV

TF-HA = TF-HA (UniProt P02787); assay: as above
[2] = target: HBB, endogenous (human (endogenous in Bel-7402)) (UniProt P68871); assay: co-IP; RPL7A/HBB precipitated with anti-RPL7A/HBB antibodies in Bel-7402 cells; NDP and NUP detected with their antibodies; cells with NMT1 knocked down or ectopically expressed, POTEE knocked down or ectopically expressed (Figures 7F, 7G)

Molecule: ALB-HA (from UniProt P02768 25-609)
binding [1]: binds

Molecule: Serotransferrin (TF), endogenous (from UniProt P02787 20-698)
binding [2]: binds

Molecule: TF-HA (from UniProt P02787 20-698)
binding [1]: binds

B1: Alpha 2-HS glycoprotein (AHSG), endogenous (protein, UniProt P02765 19-367)
chain: T2 sequence
binding [2]: binds

B3: LXN-HA (protein, UniProt Q9BS40 1-222)
chain: MEIPPTNYPASRAALVAQNYINYQQGTPHRVFEVQKVKQASMEDIPGRGHKYHLKFAVEEIIQKQVKVNCTAEVLYPSTGQETAPEVNFTFEGETGKNPDEEDNTFYQRLKSMKEPLEAQNIPDNFGNVSPEMTLVLHLAWVACGYIIWQNSTEDTWYKMVKIQTVKQVQRNDDFIELDYTILLHNIASQEIIPWQMQVLWHPQYGTKVKHNSRLPKEVQLE
binding [1]: binds

Other lines, results leading:

binding (AHSG-HA): binds
binding (TF-HA): binds
Molecule: HBB, endogenous (from UniProt P68871 1-147)

binding [1]: binds
B2: AHSG-HA (protein, UniProt P02765 19-367)
chain: T2 sequence

Reference: PMC8201403
